Experimental data published in patent publication US20250179208A1.
Residue numbers refer to the chain shown, from its start. No constants are given. Whether binding was seen depends on the method and setting. Some binding calls cover weakened binding; strength is not graded here.

By UniProt entry, the sequences of proteins in these tests, tags left out. Residues count along the entry.
UniProt P27487, residues 29-766: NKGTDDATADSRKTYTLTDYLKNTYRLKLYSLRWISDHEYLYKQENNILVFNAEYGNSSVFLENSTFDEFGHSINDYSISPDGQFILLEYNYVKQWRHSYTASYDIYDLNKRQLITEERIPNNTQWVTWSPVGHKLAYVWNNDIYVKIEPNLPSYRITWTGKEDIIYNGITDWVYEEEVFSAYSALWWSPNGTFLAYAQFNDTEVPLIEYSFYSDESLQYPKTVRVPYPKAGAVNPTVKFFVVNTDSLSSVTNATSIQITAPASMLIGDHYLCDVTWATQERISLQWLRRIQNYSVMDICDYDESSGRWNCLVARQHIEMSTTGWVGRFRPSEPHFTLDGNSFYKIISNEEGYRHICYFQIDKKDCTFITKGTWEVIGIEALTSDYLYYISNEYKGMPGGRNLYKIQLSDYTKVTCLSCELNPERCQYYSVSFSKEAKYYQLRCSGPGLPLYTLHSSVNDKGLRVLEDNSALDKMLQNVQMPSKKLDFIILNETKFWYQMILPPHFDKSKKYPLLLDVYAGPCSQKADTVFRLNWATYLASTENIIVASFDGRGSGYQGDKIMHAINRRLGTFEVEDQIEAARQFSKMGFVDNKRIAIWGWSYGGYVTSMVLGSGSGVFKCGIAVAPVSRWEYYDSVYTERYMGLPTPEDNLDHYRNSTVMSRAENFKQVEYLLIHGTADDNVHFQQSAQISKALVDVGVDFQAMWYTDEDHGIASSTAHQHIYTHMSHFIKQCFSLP

B1: 19G293 (anti-CD26-CD3 humanized bispecific antibody derived from No. 62 mouse antibody) (bispecific antibody)
chain: QVQLVQSGAELVKPGASVKLSCKASGFNIKDTYIYWVRQAPGQGLEWIGRIEPMNGNTKYDPKFQGRVTMTANTSINTAYLELSSLRSEDTAVYYCSRGGWLLLYVMDYWGQGTLVTVSSGGGGSGGGGSGGGGSDIVMTQSPLSLSVTPGEPASISCRSDKSLLHSNGNTYLYWFLQKPGQSPQVLIYRMSNLASGVPDRFSGSGSGTDFTLKISRVEAEDVGVYYCFQQLEYPYTFGQGTKLEIKGGGGSDVQLVQSGAEVKKPGASVKVSCKASGYTFTRYTMHWVRQAPGQGLEWIGYINPSRGYTNYADSVKGRFTITTDKSTSTAYMELSSLRSEDTATYYCARYYDDHYCLDYWGQGTTVTVSSGGGGSGGGGSGGGGSDIVLTQSPATLSLSPGERATLSCRASQSVSYMNWYQQKPGKAPKRWIYDTSKVASGVPARFSGSGSGTDYSLTINSLEAEDAATYYCQQWSSNPLTFGGGTKVEIK
B2: 19G296 (anti-CD26-CD3 humanized bispecific antibody derived from No. 212 mouse antibody) (bispecific antibody)
chain: QVQLQESGPGLVKPSETLSLTCTVSGDSITSGYWHWIRQPPGKGLEWIGYINYSGYTYYNPSLKSRFTISRDTSKNQYYLQLNSVTAEDTAVYYCTSERNWGAFAYWGQGTLVTVSSGGGGSGGGGSGGGGSENVLTQSPATLSASPGERATLSCRASSSVISTYLHWYQQKPGQAPKLWIYSTSNLASGVPARFSGSGSGTDYTLTISSVEPEDFAVYYCQQFSGYPYTFGQGTKLEIKGGGGSDVQLVQSGAEVKKPGASVKVSCKASGYTFTRYTMHWVRQAPGQGLEWIGYINPSRGYTNYADSVKGRFTITTDKSTSTAYMELSSLRSEDTATYYCARYYDDHYCLDYWGQGTTVTVSSGGGGSGGGGSGGGGSDIVLTQSPATLSLSPGERATLSCRASQSVSYMNWYQQKPGKAPKRWIYDTSKVASGVPARFSGSGSGTDYSLTINSLEAEDAATYYCQQWSSNPLTFGGGTKVEIK
B3: 19G297 (anti-CD26-CD3 humanized bispecific antibody derived from No. 212 mouse antibody) (bispecific antibody)
chain: B2 chain with Q1E, E16G, T23A, P40A, I48V, T142S, A151V, L153I, S154T, V218T
B4: 19G292 (anti-CD26-CD3 humanized bispecific antibody derived from No. 62 mouse antibody) (bispecific antibody)
chain: QVQLLQSGAEVVKPGASVKISCKASGFNIKDTYIYWVKQPTGQGLEWIGRIEPMNGNTKYDPKFQGRFTMTANTSINTAYLQLSSLTSEDTAVYYCSRGGWLLLYVMDYWGQGTTVTVSSGGGGSGGGGSGGGGSDIVMTQSASSLPVTPGESVSISCRSDKSLLHSNGNTYLYWFLQRPGQSPQVLIYRMSNLASGVPDRFSGSGSGTEFTLTISRVEAEDVGVYYCFQQLEYPYTFGPGTKLEIKGGGGSDVQLVQSGAEVKKPGASVKVSCKASGYTFTRYTMHWVRQAPGQGLEWIGYINPSRGYTNYADSVKGRFTITTDKSTSTAYMELSSLRSEDTATYYCARYYDDHYCLDYWGQGTTVTVSSGGGGSGGGGSGGGGSDIVLTQSPATLSLSPGERATLSCRASQSVSYMNWYQQKPGKAPKRWIYDTSKVASGVPARFSGSGSGTDYSLTINSLEAEDAATYYCQQWSSNPLTFGGGTKVEIK
B5: 17G105 (anti-CD26-CD3 chimeric bispecific antibody derived from No. 72 mouse antibody) (bispecific antibody)
chain: DIVLTQSPASLAVSLGQRATISCRASESVEYYGTSLMQWYQQKPGQPPKLLIYTASNVESGVPVRFSGSGSGTDFSLNIHPVEEDDIAMYFCQQSRKVPYTFGGGTKLEIKGGGGSGGGGSGGGGSQVQLQQSGPELMKPGASVKISCKATGYSFSGFWIEWVKQRPGHGLEWIGEILPGSGASNYHENFKGRATITADTSANTAYMQLRSLTSEDSAVYYCARERYYGSKYFDVWGAGTTVTVSSGGGGSDVQLVQSGAEVKKPGASVKVSCKASGYTFTRYTMHWVRQAPGQGLEWIGYINPSRGYTNYADSVKGRFTITTDKSTSTAYMELSSLRSEDTATYYCARYYDDHYCLDYWGQGTTVTVSSGGGGSGGGGSGGGGSDIVLTQSPATLSLSPGERATLSCRASQSVSYMNWYQQKPGKAPKRWIYDTSKVASGVPARFSGSGSGTDYSLTINSLEAEDAATYYCQQWSSNPLTFGGGTKVEIK
B6: 17G131 (anti-CD26-CD3 chimeric bispecific antibody derived from No. 51 mouse antibody) (bispecific antibody)
chain: DIQMTQSPASLSASVGESVTITCRASENIYSYLTWYQQKQGKSPQLLVYNAKTLTEDVPSRFSGSGSGTQFSLKINSLQPEDFGSYYCQHHYGSPRTFGGGTKLEIKGGGGSGGGGSGGGGSQAQLQQSGAELMKPGASVKISCKATGYTFSNFWIEWVVQRPGHGLEWIGEILPGRGTTNYNEKFRGKATFTADTSSDTAYIQLSSLTSEDSAVYYCARERFYGSKYFDVWGAGTTVTVSSGGGGSDVQLVQSGAEVKKPGASVKVSCKASGYTFTRYTMHWVRQAPGQGLEWIGYINPSRGYTNYADSVKGRFTITTDKSTSTAYMELSSLRSEDTATYYCARYYDDHYCLDYWGQGTTVTVSSGGGGSGGGGSGGGGSDIVLTQSPATLSLSPGERATLSCRASQSVSYMNWYQQKPGKAPKRWIYDTSKVASGVPARFSGSGSGTDYSLTINSLEAEDAATYYCQQWSSNPLTFGGGTKVEIK
B7: 17G61 (anti-CD26-CD3 chimeric bispecific antibody derived from No. 62 mouse antibody) (bispecific antibody)
chain: DIVMTQAAPSVSVTPGESVSISCRSDKSLLHSNGNTYLYWFLQRPGQSPQVLIYRMSNLASGVPDRFSGSGSGTGFTLRVSRVEAEDVGVYYCFQQLEYPYTFGGGTKLEIKGGGGSGGGGSGGGGSEVQLQQSGAELVKPGASVKLSCTASGFNIKDTYIYWVKQRPGQGLEWIGRIEPMNGNTKYDPKFQGKATMTANTSSNTAYLHLSSLASEDTAVYFCSRGGWLLLYVMDYWGQGTSVTVSSGGGGSDVQLVQSGAEVKKPGASVKVSCKASGYTFTRYTMHWVRQAPGQGLEWIGYINPSRGYTNYADSVKGRFTITTDKSTSTAYMELSSLRSEDTATYYCARYYDDHYCLDYWGQGTTVTVSSGGGGSGGGGSGGGGSDIVLTQSPATLSLSPGERATLSCRASQSVSYMNWYQQKPGKAPKRWIYDTSKVASGVPARFSGSGSGTDYSLTINSLEAEDAATYYCQQWSSNPLTFGGGTKVEIK
B8: 21G587 (19G294 anti-CD26 scFv joined to the WBP3311_2.306.4 anti-CD3 scFv) (bispecific antibody)
chain: EVQLVQSGAELVKPGASVKLSCAASGFNIKDTYIYWVRQAPGQGLEWVGRIEPMNGNTKYDPKFQGRFTMTANTSKNTAYLQLSSLRSEDTAVYYCSRGGWLLLYVMDYWGQGTLVTVSSGGGGSGGGGSGGGGSDIVMTQSPSSLSVTPGERVSISCRSDKSLLHSNGNTYLYWFLQKPGQSPQVLIYRMSNLASGVPDRFSGSGSGTDFTLTISRVEAEDVGVYYCFQQLEYPYTFGQGTKLEIKGGGGSQVQLVQSGAEVKKPGSSVKVSCKASGFAFTDYYIHWVRQAPGQGLEWMGWISPGNVNTKYNENFKGRVTITADKSTSTAYMELSSLRSEDTAVYYCARDGYSLYYFDYWGQGTLVTVSSGGGGSGGGGSGGGGSDIVMTQSPDSLAVSLGERATINCKSSQSLLNSRTRKNYLAWYQQKPGQPPKLLIYWASTRQSGVPDRFSGSGSGTDFTLTISSLQAEDVAVYYCTQSHTLRTFGGGTKVEIK
B9: 19G295 (anti-CD26-CD3 humanized bispecific antibody derived from No. 212 mouse antibody) (bispecific antibody)
chain: QVQLQESGPELVKPSETLSLTCKVSGDSITSGYWHWIRQFPGQKLEYMGYINYSGYTYYNPSLKSRLTISRDTSKNQYFLKLRSVTSDDTALYYCTSERNWGAFAYWGQGTLITVSSGGGGSGGGGSGGGGSENVLTQSPASLSVSPGERVTLNCRASSSVISTYLHWYQQKPGKPPRLWIYSTSNLASGIPARFSGSGSGTEYTLTISSVESEDFAVYYCQQFSGYPYTFGQGTKLEIKGGGGSDVQLVQSGAEVKKPGASVKVSCKASGYTFTRYTMHWVRQAPGQGLEWIGYINPSRGYTNYADSVKGRFTITTDKSTSTAYMELSSLRSEDTATYYCARYYDDHYCLDYWGQGTTVTVSSGGGGSGGGGSGGGGSDIVLTQSPATLSLSPGERATLSCRASQSVSYMNWYQQKPGKAPKRWIYDTSKVASGVPARFSGSGSGTDYSLTINSLEAEDAATYYCQQWSSNPLTFGGGTKVEIK
B10: 18G272 (anti-CD26-CD3 humanized bispecific antibody derived from No. 62 mouse antibody) (bispecific antibody)
chain: DIVMTQSASSLPVTPGEPASISCRSDKSLLHSNGNTYLYWFLQKPGQSPQVLIYRMSNLASGVPDRFSGSGSGTDFTLTISRVEAEDVGVYYCFQQLEYPYTFGQGTKLEIKGGGGSGGGGSGGGGSQVQLVQSGAEVVKPGASVKISCKASGFNIKDTYIYWVRQRTGQGLEWIGRIEPMNGNTKYDPKFQGRLTMTANTSKNTAYLQLSSLTSEDTAVYYCSRGGWLLLYVMDYWGQGTTVTVSSGGGGSDVQLVQSGAEVKKPGASVKVSCKASGYTFTRYTMHWVRQAPGQGLEWIGYINPSRGYTNYADSVKGRFTITTDKSTSTAYMELSSLRSEDTATYYCARYYDDHYCLDYWGQGTTVTVSSGGGGSGGGGSGGGGSDIVLTQSPATLSLSPGERATLSCRASQSVSYMNWYQQKPGKAPKRWIYDTSKVASGVPARFSGSGSGTDYSLTINSLEAEDAATYYCQQWSSNPLTFGGGTKVEIK

target: CD26 protein (recombinant human CD26) (human) (UniProt P27487); test: BLI (Octet), summary of Table 7

binding, binds:
B1
B2
B3
B4

target: CD26 protein (recombinant human CD26) (human) (UniProt P27487); test: BLI (Octet QKe), CD26 on AR2G sensor

binding, binds:
B5
B6
B7

target: CD26 protein (recombinant human CD26) (human) (UniProt P27487); test: BLI (Octet), biotinylated CD26 on SA sensor

binding, binds:
B1
B8
B2
B3
B4

target: CD26 protein (recombinant human CD26) (human) (UniProt P27487); test: dot blot, antibody spotted on NC membrane, probed with CD26-HRP

binding, binds:
B9
B1
B10
B2
B3
B4

target: CD26 protein (recombinant human CD26) (human) (UniProt P27487); test: BLI (Octet), biotinylated CD26 on SA sensor; cell of the kdis column

binding, binds:
B1
B4

target: CD26 protein (recombinant human CD26) (human) (UniProt P27487); test: dot blot: sample spotted on NC membrane, probed with CD26-HRP, chemiluminescence

binding, binds:
B10
